Assay results taken from PMC12365319.
Results are given in words; binding and its absence hold for the method and conditions named. Binding seen in cells or lysates may run through a third protein. A yes stands for co-enrichment or nearness to the bait. Other partners may have been found.

By UniProt entry, the sequences of proteins in these tests, tags left out.
UniProt Q6URW6: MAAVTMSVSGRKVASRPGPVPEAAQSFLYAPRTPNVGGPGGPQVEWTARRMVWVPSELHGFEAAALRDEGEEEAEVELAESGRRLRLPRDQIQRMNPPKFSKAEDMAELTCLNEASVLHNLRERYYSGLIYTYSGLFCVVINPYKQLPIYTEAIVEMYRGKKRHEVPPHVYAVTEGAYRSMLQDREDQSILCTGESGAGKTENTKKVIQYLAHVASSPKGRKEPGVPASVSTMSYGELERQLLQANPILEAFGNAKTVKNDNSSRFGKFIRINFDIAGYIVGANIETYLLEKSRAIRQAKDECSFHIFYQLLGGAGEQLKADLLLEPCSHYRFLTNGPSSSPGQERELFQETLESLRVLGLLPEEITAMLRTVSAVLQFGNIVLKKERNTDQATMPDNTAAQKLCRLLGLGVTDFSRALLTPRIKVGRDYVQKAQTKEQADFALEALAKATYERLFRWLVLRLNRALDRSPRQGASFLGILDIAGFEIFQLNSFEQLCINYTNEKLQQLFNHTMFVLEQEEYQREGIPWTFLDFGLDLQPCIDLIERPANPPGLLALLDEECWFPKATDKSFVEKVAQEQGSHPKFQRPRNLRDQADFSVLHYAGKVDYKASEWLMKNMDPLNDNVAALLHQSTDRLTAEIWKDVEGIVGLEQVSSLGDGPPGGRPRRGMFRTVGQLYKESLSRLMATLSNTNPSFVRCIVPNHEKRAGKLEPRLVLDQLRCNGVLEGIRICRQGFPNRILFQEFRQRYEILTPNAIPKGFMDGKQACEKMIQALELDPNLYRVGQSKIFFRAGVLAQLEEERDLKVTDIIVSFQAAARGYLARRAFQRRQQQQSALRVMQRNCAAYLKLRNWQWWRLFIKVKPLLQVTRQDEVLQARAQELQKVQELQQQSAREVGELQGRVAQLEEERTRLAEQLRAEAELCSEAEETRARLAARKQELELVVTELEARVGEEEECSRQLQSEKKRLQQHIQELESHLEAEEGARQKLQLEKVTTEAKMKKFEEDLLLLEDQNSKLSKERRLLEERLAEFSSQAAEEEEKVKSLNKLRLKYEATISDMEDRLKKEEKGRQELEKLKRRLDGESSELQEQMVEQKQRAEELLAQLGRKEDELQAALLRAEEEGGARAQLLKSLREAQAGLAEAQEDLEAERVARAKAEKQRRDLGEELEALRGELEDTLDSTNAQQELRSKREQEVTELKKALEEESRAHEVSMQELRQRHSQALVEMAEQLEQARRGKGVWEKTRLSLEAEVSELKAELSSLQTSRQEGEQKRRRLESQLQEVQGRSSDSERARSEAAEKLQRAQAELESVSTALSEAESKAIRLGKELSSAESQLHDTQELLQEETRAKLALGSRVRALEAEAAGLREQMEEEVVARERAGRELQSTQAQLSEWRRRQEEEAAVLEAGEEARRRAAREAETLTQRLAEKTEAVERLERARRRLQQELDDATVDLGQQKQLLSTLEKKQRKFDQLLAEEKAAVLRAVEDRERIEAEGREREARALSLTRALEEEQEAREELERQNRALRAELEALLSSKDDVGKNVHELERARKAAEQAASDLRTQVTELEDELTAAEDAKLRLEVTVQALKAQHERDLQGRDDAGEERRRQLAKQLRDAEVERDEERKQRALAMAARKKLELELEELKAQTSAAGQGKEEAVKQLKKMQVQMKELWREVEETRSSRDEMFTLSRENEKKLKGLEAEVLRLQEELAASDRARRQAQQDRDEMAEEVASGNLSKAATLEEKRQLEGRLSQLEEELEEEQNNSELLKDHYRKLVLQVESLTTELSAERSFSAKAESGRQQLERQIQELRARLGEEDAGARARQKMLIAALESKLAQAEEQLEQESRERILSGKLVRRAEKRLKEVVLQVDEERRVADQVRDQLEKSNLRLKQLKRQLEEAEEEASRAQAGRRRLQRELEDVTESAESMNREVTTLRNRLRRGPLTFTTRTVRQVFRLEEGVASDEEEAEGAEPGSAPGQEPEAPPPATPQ

B1: MYL10 (protein, UniProt Q62082 1-202)
chain: MGQSSLDHGVQGPVAGTGDFGPLKEATATGFISCAQAPRRARKRVEGTASSNVFSMFDQSQIQEFKEAFTIMDQNRDGFIDKEDLRDTFAALGRINVKNEELEAMVKEAPGPINFTVFLTMFGEKLKGTDPEETILHAFKVFDTEGKGFVKADFIKEKLMTQADRFSEEEVKQMFAAFPPDVCGNLDYRNLCYVITHGEEKD
B2: MYL6 (protein, UniProt Q60605 1-151)
chain: MCDFTEDQTAEFKEAFQLFDRTGDGKILYSQCGDVMRALGQNPTNAEVLKVLGNPKSDEMNVKVLDFEHFLPMLQTVAKNKDQGTYEDYVEGLRVFDKEGNGTVMGAEIRHVLVTLGEKMTEEEVEMLVAGHEDSNGCINYEAFVRHILSG
B3: MYL6b (protein, UniProt Q8CI43 1-207)
chain: MPPKKDAPVKKPAGPSISKPAAKSTPGTPLAKAKAEPAAPQAPAKSQEPPVDLSKVVIEFNKDQLEEFREAFELFDRVGDGKILYSQCGDLMRALGQNPTNAEVLKVLGNPKNEELKSRRVDFETFLPMLQAVAKNRDQGTYEDYLEGLRVFDKEGNGKVMGAELRHVLTTLGEKMTEEEVETVLAGHEDSNGCINYEAFLKHILSL

Molecular target: T1, F-box/LRR-repeat protein 12 (mouse (endogenous in SIM-A9)) (UniProt Q9EPX5)
T1 sequence: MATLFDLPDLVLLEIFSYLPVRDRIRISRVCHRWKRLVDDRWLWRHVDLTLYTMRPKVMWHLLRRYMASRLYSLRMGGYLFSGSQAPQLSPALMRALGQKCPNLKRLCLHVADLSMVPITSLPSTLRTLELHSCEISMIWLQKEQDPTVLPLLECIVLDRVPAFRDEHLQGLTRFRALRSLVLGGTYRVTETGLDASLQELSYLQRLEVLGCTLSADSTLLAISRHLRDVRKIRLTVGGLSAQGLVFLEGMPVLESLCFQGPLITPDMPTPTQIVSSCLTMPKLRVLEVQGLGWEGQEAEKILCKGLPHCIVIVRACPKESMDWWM
Assay: affinity purification with mass spectrometry; whole-cell lysates of SIM-A9 microglia (wild-type, and treated with 200 ng/mL MBP for 4 days) incubated with 10 ug rabbit anti-Fbxl12 antibody for 3 h at 4 C; eluted proteins digested with trypsin, LC-MS/MS

| Molecule | binding |
| --- | --- |
| Myosin heavy chain 14 (from UniProt Q6URW6 1-2000) | binds |
| B1 | binds |
| B2 | binds |
| B3 | binds |
